# Test results from PubChem BioAssay AID504648 (National Center for Advancing Translational Sciences (NCATS), 2011).
# In all, about 390,000 compounds went through this assay and about 610 (0.16%) were called active. The shares of active, inactive and inconclusive entries below differ from those in the screen. Calls come from the whole dose curve; as a rule, active = well fitted inhibition curve with a large enough effect; inconclusive = small, poorly fitted or top-dose-only effect, or effect the other way, or another doubt; inactive = no such curve, though single readings can be large or run the other way. A potency beside an inconclusive call is a rough fit, not a confirmed value.
# Experiment: Nrf2 qHTS screen for inhibitors: counterscreen for cytotoxicity
# Conditions: A549 ARE-Fluc cells, CellTiter-Fluor viability, 18-24 h; activity change, negative = cytotoxicity: at 46 µM (top of the series)
# Outline: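 A549 ARE_Fluc cells in 5% FBS OPTI-MEM were exposed to compounds in concentration-response for 18-24 h at 37 deg C. Viability was read by CellTiter-Fluor fluorescence (Ex 405/Em 525) after 30 min, before the luciferase read.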
# % is set by controls: 0 for no effect and ±100 for the full control effect; potency is the fitted concentration of half-maximal effect.
Compound,Potency,"activity change, negative = cytotoxicity"
Cc1nc([N+](=O)[O-])c(Br)n1CC(=O)c1cccc([N+](=O)[O-])c1,"inconclusive: 14.6 µM [falling, partial curve, poor fit]",–
CC(=O)c1c(N2CCN(c3ccc(F)cc3)CC2)nc(=S)n(Cc2ccccc2)c1C,–,inactive: 13.3%
COc1cc(/C=C/CN2CCC(Oc3ccc(C(=O)N4CCCC4)cc3)CC2)ccc1O,"inconclusive: 16.4 µM [falling, single point]",–
CCc1ccc(CNC(=O)C2CCCN(c3nn4cc(-c5ccc(F)cc5)nc4s3)C2)cc1 (stereo not drawn),–,inactive: 11.1%
CCCCCc1ccc(S(=O)(=O)Nc2cc(C)ccn2)cc1,–,inactive: -7.03%
Cc1ccccc1C(=O)N1CCc2cc(-c3csc(NC(=O)CN4CCCC4)n3)ccc21,"inconclusive: 29.1 µM [falling, partial curve, poor fit]",–
Cc1ccc([N+](=O)[O-])cc1-c1ccc(/C=C(\C#N)c2[nH]nc(N)c2C#N)o1,"inconclusive: 18.4 µM [falling, single point]",–
CCN1/C(=C/C(=O)c2ccco2)Sc2ccccc21,"inconclusive: 20.6 µM [falling, partial curve, poor fit]",–
c1ccc(-c2oc3ncnc(NCCN4CCOCC4)c3c2-c2ccccc2)cc1,–,inactive: -10.1%
COc1ccc(C(CC(=O)N2CCCC(C)C2)c2c(OC)cc(OC)c3c(-c4ccccc4)cc(=O)oc23)cc1 (stereo not drawn),"inconclusive: 13 µM [falling, partial curve, poor fit]",–
Cc1cc(Cl)c2oc(C(=O)N3CCN(c4ccncc4)CC3)c(C)c2c1,"inconclusive: 18.4 µM [falling, single point]",–
CCCCNC(=S)N(CCCN(C)C)Cc1cc2cc3c(cc2[nH]c1=O)OCO3,"inconclusive: 25.9 µM [activator, partial curve]",–
Cc1ccc(C2=Nc3ccccc3N(C(=O)c3ccccc3)C(C)C2)cc1 (stereo not drawn),–,inactive: -1.08%
O=C(/C=C/c1ccccc1[N+](=O)[O-])N1CCN(c2ccc(F)cc2)CC1,–,inactive: -1.91%
NC(=NCc1ccccc1)NC(=O)c1nc(Cl)c(N)nc1N,"inconclusive: 20.6 µM [falling, single point]",–
Cc1ccc(-c2ccc(/C=N/N3C(=O)C4C5C=CC(CC5)C4C3=O)o2)c([N+](=O)[O-])c1 (stereo not drawn),–,inactive: 3.61%
CCOc1cc(CNCCc2ccc(S(N)(=O)=O)cc2)ccc1OCc1ccc(Cl)cc1,"inconclusive: 18.4 µM [falling, partial curve]",–
CCc1nnc(NC(=O)c2cccc(C(=O)Nc3nnc(CC)s3)n2)s1,"inconclusive: 4.61 µM [falling, partial curve, poor fit]",–

# One compound at a time, from the list above. Values in the order: Potency	activity change, negative = cytotoxicity
# O=C(/C=C/c1ccccc1[N+](=O)[O-])N1CCN(c2ccc(F)cc2)CC1 in the list: –	inactive: -1.91%
# CCCCCc1ccc(S(=O)(=O)Nc2cc(C)ccn2)cc1 in the list: –	inactive: -7.03%
